From publication PMC10572819
Results are given in words; binding and its absence hold for the method and conditions named. Binding seen in cells or lysates may run through a third protein. Some entries that bind do so weakly or less than the wild type.

Molecular target: T1, B-cell receptor-associated protein 31 (BAP31) (human (endogenous in MKN-45)) (UniProt P51572)
T1 sequence: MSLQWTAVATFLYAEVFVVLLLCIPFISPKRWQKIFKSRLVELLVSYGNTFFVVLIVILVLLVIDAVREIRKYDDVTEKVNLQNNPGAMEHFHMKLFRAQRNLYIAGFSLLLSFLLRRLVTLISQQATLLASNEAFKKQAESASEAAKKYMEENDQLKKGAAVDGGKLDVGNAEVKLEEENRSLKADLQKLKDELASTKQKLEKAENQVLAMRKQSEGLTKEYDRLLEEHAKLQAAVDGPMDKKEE
Assay: co-IP; immunoprecipitation with anti-BAP31 monoclonal antibody (7A3BB6) from enriched membrane proteins of MKN-45 lysate, 1% Nonidet P 40, 150 mM NaCl, 50 mM Tris-HCl pH 7.4, 4 °C; blot for EpCAM; compared to preimmune IgG

B1: epithelial cell-adhesion molecule (EpCAM) (protein, UniProt P16422 24-314)
chain: QEECVCENYKLAVNCFVNNNRQCQCTSVGAQNTVICSKLAAKCLVMKAEMNGSKLGRRAKPEGALQNNDGLYDPDCDESGLFKAKQCNGTSMCWCVNTAGVRRTDKDTEITCSERVRTYWIIIELKHKAREKPYDSKSLRTALQKEITTRYQLDPKFITSILYENNVITIDLVQNSSQKTQNDVDIADVAYYFEKDVKGESLFHSKKMDLTVNGEQLDLDPGQTLIYYVDEKAPEFSMQGLKAGVIAVIVVVVIAVVAGIVVLVISRKKRMAKYEKAEIKEMGEMHRELNA
Question: How did the binding turn out when B1 was run?
Answer: The binding was “binds”.
